# Screening data

Source: PubChem BioAssay AID912 (NCATS, 2007).

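Uptake of anthrax lethal toxin into cultured cells, read by FRET (460/530 nm ratio) and reported from the 460 nm channel; the cell line is not named here.
Each compound was tested as a concentration series from about 0.0005 to 40 µM.
The number is the fitted AC50 of the 460 nm signal alone; lower values mean a more potent effect. A falling signal goes with compounds filed as inhibitors or cytotoxic, a rising one with activators or fluorescent compounds (inferred from the filed classes).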

Values are in µM.
Common to all entries: measured here: 460 nm channel.
This is a side read-out of the assay, for part of the compounds, not drawn at random.
A potency from a partial, single-point or poor curve is only a rough figure.
The first word of each remark tells which way the curve ran; it can be opposite to the aim of the assay.

| Compound | AC50 (µM) | remark |
|---|---|---|
| `COc1ccc(C(=O)NCc2c(CC(C)C)oc(C)c2C(=O)O)cc1` | 12.59 | rising, single point |
| `O=c1c(-c2ccc(F)cc2)nc2cnc(N3CCOCC3)nc2n1C1CC1` | 0.03162 | rising, full curve |
| `O=C(C1CCN(C2CC(=O)N(Cc3ccccc3)C2=O)CC1)N1CCCCCC1` (centres undefined) | 10 | rising, single point |
| `Cc1nn(CC(=O)NCC2CCCO2)c(=O)c2ccccc12` (centres undefined) | 3.981 | rising, single point |
| `CCOC(=O)/C=C/S(=O)(=O)c1ccc(NC(C)=O)cc1` | 6.31 | falling, partial curve |
| `O=C1C2C3C=CC(C2C(=O)N1CN1CCOCC1)C1C2C(=O)N(CN4CCOCC4)C(=O)C2C31` (centres undefined) | 0.7943 | rising, partial curve |
| `COC(=O)CSc1nnnn1-c1ccccc1` | 5.012 | rising, single point |
| `COc1ccccc1NC(=O)N(Cc1ccco1)Cc1cc2ccc(C)c(C)c2[nH]c1=O` | 12.59 | falling, partial curve |
| `CN1[C@H](CC(=O)c2ccccc2)CCC[C@H]1C[C@@H](O)c1ccccc1` | 25.12 | falling, partial curve |
| `Cc1ccc(-n2ncc3c(=O)[nH]c(SCC(=O)N4CCCc5ccccc54)nc32)cc1` | 31.62 | rising, single point |
| `C[C@H]1CC[C@@H]2[C@@H](C)C(=O)O[C@H]3O[C@@]4(C)CC[C@@H]1[C@]32OO4` | 31.62 | rising, single point |
| `Cc1ccnc(Nc2nc(-c3c(C)nc4sccn34)cs2)c1` | 25.12 | falling, single point |
| `CN1/C(=C\C(=O)c2cccs2)Sc2ccccc21` | 12.59 | rising, single point |
| `O=C(CC1Sc2ncnn2C1=O)Nc1ccc(Br)cc1` (centres undefined) | 6.31 | falling, single point |
| `FC(F)(F)Oc1ccc(Nc2nc3ccccc3o2)cc1` | 3.981 | falling, partial curve |
| `CCCOc1ccc2c3c(c(=O)oc2c1)CCCC3` | 10 | falling, partial curve, poor fit |
| `O=c1c(-c2ccc(F)cc2)nc2cnc(N3CCOCC3)nc2n1-c1ccccc1` | 3.981 | rising, full curve |
| `Cc1ccc(-c2noc(COc3ccccc3C)n2)cc1` | 15.85 | falling, single point |
| `Cc1ccc(CNC(=O)C2CC(=O)N(C3CCCCCCC3)C2)cc1` (centres undefined) | 19.95 | falling, partial curve, poor fit |
| `O=c1[nH]c(CSc2ncc(-c3ccc(F)cc3)n2Cc2ccco2)nc2ccccc12` | 25.12 | falling, single point |
| `Cc1cc(C)nc(NC(=O)Nc2ccccc2C(F)(F)F)n1` | 5.012 | falling, full curve, poor fit |
| `CCOC(=O)Cc1nnc2c(Nc3ccc(Cl)cc3)nc3nonc3n12` | 10 | falling, partial curve |
| `O=C(CSc1nc2c(sc3ccccc32)c(=O)n1Cc1ccco1)NCC1CCCO1` (centres undefined) | 10 | rising, partial curve, poor fit |
| `O=C1CSC(=Nc2cc(Cl)ccc2Cl)N1` | 3.981 | falling, partial curve |
| `CCN(CC)c1ccc(NC(=O)c2nc3nc(C)cc(C(F)F)n3n2)cc1` | 3.162 | falling, single point |
| `Oc1ccc2c3c1O[C@H]1c4c(c5ccccc5n4Cc4ccccc4)C[C@]4(O)[C@H](C2)N(CC2CC2)CC[C@@]314` | 25.12 | falling, partial curve |
| `COc1ccc(CCn2c(-c3ccco3)nc3nc4ccccc4nc32)cc1` | 31.62 | rising, single point |
| `CCN(CC)CCN1C(=O)c2oc3ccccc3c(=O)c2C1c1ccc(C)cc1` (centres undefined) | 0.07943 | rising, full curve |
| `COc1ccc(OC)c(S(=O)(=O)Nc2cnc3ccccc3c2)c1` | 3.981 | rising, partial curve |
| `CC1(C)NC(=O)N(CC(O)COC2CCCCC2)C1=O` (centres undefined) | 0.3981 | falling, partial curve, poor fit |
| `CC1=C(C)CS(=O)N(S(=O)(=O)c2ccc(Cl)cc2)C1` (centres undefined) | 31.62 | falling, single point |
| `O=C(Nc1ccccc1O)c1cc(S(=O)(=O)N2CCOCC2)c(Cl)cc1Cl` | 0.5012 | falling, partial curve |
| `COc1cc2c(C#N)c(N3CCCCC3)nc(N)c2c(N)n1` | 5.012 | rising, single point |
| `Cc1cccn2c(=O)c3cc(C(=O)NCc4cccnc4)c(=N)n(C(C)C)c3nc12` | 12.59 | rising, partial curve |
| `COc1cccc(C2C(C(=O)c3sc(C)nc3C)=C(O)C(=O)N2CCN(C)C)c1OC` (centres undefined) | 0.3162 | rising, full curve |
| `CCOC(=O)Nc1ccc2c(CN3C(=O)NC4(CCCC4)C3=O)cc(=O)oc2c1` | 7.943 | rising, partial curve |
| `O=C(NCCc1ccncc1)Nc1ccc(Cl)cc1` | 10 | falling, single point |
| `C=CCSC1=C(C#N)C2(CCCCC2)C(C#N)C(=O)N1` (centres undefined) | 31.62 | falling, single point |

4 of the entries, repeated:

{"compound": "O=C(Nc1ccccc1O)c1cc(S(=O)(=O)N2CCOCC2)c(Cl)cc1Cl", "AC50 (µM)": "0.5012", "remark": "falling, partial curve"}
{"compound": "CC1(C)NC(=O)N(CC(O)COC2CCCCC2)C1=O", "stereo": "centres undefined", "AC50 (µM)": "0.3981", "remark": "falling, partial curve, poor fit"}
{"compound": "CC1=C(C)CS(=O)N(S(=O)(=O)c2ccc(Cl)cc2)C1", "stereo": "centres undefined", "AC50 (µM)": "31.62", "remark": "falling, single point"}
{"compound": "Cc1ccc(-c2noc(COc3ccccc3C)n2)cc1", "AC50 (µM)": "15.85", "remark": "falling, single point"}